PubChem BioAssay AID1259254, NCATS, 2017

Assay: 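Finding genes that stop cells copying their DNA twice in one cycle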 (primary screen)
Cell system: human HCT116 colorectal cancer cells
Reagents: single siRNA against human genes
Time to read-out: 3 days
Detection: 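Imaged Hoechst DNA stain sorts each cell into a cycle phase by DNA amount; per plate, G2 fraction set to 0% for non-targeting and 100% for GMNN siRNA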
Reading the numbers: G2 robust z-score: higher = more G2 cells, more excess DNA replication
Call rule: 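Active siRNAs have a G2 robust z of 5 or more median absolute deviations over the median, which in these data means about 38% or higher of GMNN control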
Here is an unselected part of about 59,000 reagents tested. About 1,550 of all reagents (2.6%) count as active. 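G2 share is only a proxy for re-replication; each gene was hit by three separate siRNAs, and active genes were retested.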 Entries without a mark were called inactive. The numbers tell different reagents against one gene apart. Not all columns of the deposit are shown. Not stated in the record: the amount of reagent.

ELAVL3 #1
- G2 robust z-score: -0.591

ELAVL3 #2
- G2 robust z-score: -0.766

ELAVL3 #3
- G2 robust z-score: -0.757

DCUN1D3 #1
- G2 robust z-score: -0.387

DCUN1D3 #2
- G2 robust z-score: 0.443

DCUN1D3 #3
- G2 robust z-score: -0.31

ERCC5 #1
- G2 robust z-score: -0.641

ERCC5 #2
- G2 robust z-score: -1.05

ERCC5 #3
- G2 robust z-score: -0.00803

OR4K14 #1
- G2 robust z-score: -0.857

OR4K14 #2
- G2 robust z-score: -0.399

OR4K14 #3
- G2 robust z-score: 0.844

RPS10P15 #1
- G2 robust z-score: -0.294

RPS10P15 #2
- G2 robust z-score: 3.93

RPS10P15 #3
- G2 robust z-score: 0.185

GALNT8 #1
- G2 robust z-score: -0.953

GALNT8 #2
- G2 robust z-score: -0.0166

GALNT8 #3
- G2 robust z-score: 0.318

CTSA #1
- G2 robust z-score: 0.325

CTSA #2
- G2 robust z-score: -0.509

CTSA #3
- G2 robust z-score: 0.406

DHRS3 #1
- G2 robust z-score: 1.02

DHRS3 #2
- G2 robust z-score: 4.79

DHRS3 #3
- G2 robust z-score: -0.423
